Plain letter strings leave the end groups untold.
assay: general procedure: Fmoc solid-phase peptide synthesis; 2-CTC Resin (Sub 1.05 mmol/g); HBTU/DIPEA; settings: whole synthesis, HPLC, scale of the general procedure 0.2 mmol

| Substance | purity (crude or final not stated) |
| --- | --- |
| Ac-MTEPVEHEEDV-NH2 | 99.0% |
| YARAAARNARAEKEQEMTDPVDHDEDVQGAVQ (Linear peptide) | 96.0% |
| [MIGSVEQEENA] | 93.2% |

same assay, conditions: whole synthesis, HPLC, scale of the general procedure 0.2 mmol, head-to-tail ring

| Substance | purity (crude or final not stated) |
| --- | --- |
| [MIEPVEHEESR] | 95.6% |
| [MTAPVAHAEDV] | 95.8% |
| [MTDPVDHDEDV] | 96.2% |
| [MTEPVEHEEDV] | 99.7% |
